Reference: paper PMC10216487

By UniProt entry, the sequences of proteins in these tests, tags left out.
UniProt Q96RK0: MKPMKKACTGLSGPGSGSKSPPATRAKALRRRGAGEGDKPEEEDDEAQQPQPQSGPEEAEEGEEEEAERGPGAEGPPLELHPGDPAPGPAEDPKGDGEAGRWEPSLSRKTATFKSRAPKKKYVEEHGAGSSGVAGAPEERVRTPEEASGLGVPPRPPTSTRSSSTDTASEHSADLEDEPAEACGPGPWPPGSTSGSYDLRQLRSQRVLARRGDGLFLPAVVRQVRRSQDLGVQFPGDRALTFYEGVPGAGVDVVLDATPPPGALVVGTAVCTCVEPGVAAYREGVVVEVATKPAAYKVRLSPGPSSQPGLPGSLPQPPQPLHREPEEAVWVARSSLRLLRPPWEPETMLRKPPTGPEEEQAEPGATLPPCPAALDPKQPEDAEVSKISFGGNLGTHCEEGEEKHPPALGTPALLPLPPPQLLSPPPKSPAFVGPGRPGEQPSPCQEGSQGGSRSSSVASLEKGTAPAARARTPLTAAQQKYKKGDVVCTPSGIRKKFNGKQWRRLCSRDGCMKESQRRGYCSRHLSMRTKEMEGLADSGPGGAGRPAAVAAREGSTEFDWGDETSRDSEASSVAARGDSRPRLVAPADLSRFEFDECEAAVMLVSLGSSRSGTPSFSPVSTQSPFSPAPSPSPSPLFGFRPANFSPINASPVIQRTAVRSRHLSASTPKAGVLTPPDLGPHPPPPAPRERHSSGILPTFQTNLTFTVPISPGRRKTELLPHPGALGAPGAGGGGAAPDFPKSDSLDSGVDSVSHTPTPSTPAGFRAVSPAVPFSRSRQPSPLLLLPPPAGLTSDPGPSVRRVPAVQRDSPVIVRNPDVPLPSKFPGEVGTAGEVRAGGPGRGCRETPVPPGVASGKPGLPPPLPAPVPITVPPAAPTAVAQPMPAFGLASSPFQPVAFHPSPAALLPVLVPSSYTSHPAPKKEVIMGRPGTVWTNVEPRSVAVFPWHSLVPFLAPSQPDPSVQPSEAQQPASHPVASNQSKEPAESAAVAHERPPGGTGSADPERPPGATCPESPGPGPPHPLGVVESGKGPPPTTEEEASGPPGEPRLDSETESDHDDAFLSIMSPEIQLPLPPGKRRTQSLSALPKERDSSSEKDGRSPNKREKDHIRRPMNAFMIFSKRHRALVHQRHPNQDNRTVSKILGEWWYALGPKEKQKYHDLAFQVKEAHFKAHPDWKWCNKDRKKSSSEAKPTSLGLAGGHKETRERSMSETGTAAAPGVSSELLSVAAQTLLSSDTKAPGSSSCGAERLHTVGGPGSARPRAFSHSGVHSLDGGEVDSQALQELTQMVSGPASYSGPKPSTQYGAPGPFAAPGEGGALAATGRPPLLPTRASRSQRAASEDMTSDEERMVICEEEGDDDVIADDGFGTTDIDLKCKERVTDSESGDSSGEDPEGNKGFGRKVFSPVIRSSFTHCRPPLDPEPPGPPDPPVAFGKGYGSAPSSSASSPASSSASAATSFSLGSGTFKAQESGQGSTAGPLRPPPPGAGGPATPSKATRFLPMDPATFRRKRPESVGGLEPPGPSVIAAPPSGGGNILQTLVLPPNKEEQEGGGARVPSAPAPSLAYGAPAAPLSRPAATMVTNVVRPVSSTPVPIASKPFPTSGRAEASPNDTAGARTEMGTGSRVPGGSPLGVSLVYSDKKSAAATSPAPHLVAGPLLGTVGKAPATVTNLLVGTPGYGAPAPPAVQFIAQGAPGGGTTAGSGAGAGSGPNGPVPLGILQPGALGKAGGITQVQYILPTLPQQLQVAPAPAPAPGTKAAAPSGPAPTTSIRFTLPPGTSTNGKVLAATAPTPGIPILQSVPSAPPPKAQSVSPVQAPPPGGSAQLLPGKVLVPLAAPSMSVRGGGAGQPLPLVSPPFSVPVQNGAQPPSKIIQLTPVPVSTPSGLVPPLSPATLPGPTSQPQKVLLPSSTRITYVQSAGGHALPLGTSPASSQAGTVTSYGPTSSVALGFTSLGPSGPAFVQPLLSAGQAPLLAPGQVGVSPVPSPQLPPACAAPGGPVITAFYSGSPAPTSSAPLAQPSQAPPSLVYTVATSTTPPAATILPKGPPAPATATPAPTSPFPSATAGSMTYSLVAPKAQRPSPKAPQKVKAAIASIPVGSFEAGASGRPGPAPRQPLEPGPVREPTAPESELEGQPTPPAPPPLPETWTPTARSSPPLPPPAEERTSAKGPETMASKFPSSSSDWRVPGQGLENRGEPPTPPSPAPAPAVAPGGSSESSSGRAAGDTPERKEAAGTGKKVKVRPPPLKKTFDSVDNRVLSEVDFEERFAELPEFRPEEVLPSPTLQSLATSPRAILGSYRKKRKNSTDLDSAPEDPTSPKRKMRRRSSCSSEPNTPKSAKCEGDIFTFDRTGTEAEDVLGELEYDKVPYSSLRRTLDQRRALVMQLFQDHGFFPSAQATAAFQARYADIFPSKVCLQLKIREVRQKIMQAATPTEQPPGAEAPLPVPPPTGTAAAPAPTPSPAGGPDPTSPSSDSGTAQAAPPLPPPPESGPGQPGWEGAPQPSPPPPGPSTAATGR

B1: GAR1 (protein, UniProt Q9NY12 1-217)
chain: MSFRGGGRGGFNRGGGGGGFNRGGSSNHFRGGGGGGGGGNFRGGGRGGFGRGGGRGGFNKGQDQGPPERVVLLGEFLHPCEDDIVCKCTTDENKVPYFNAPVYLENKEQIGKVDEIFGQLRDFYFSVKLSENMKASSFKKLQKFYIDPYKLLPLQRFLPRPPGEKGPPRGGGRGGRGGGRGGGGRGGGRGGGFRGGRGGGGGGFRGGRGGGFRGRGH
B2: GNL3 (protein, UniProt Q9BVP2 1-549)
chain: MKRPKLKKASKRMTCHKRYKIQKKVREHHRKLRKEAKKRGHKKPRKDPGVPNSAPFKEALLREAELRKQRLEELKQQQKLDRQKELEKKRKLETNPDIKPSNVEPMEKEFGLCKTENKAKSGKQNSKKLYCQELKKVIEASDVVLEVLDARDPLGCRCPQVEEAIVQSGQKKLVLILNKSDLVPKENLESWLNYLKKELPTVVFRASTKPKDKGKITKRVKAKKNAAPFRSEVCFGKEGLWKLLGGFQETCSKAIRVGVIGFPNVGKSSIINSLKQEQMCNVGVSMGLTRSMQVVPLDKQITIIDSPSFIVSPLNSSSALALRSPASIEVVKPMEAASAILSQADARQVVLKYTVPGYRNSLEFFTVLAQRRGMHQKGGIPNVEGAAKLLWSEWTGASLAYYCHPPTSWTPPPYFNESIVVDMKSGFNLEELEKNNAQSIRAIKGPHLANSILFQSSGLTNGIIEEKDIHEELPKRKERKQEEREDDKDSDQETVDEEVDENSSGMFAAEETGEALSEETTAGEQSTRSFILDKIIEEDDAYDFSTDYV
B3: NONO (protein, UniProt Q15233 1-471)
chain: MQSNKTFNLEKQNHTPRKHHQHHHQQQHHQQQQQQPPPPPIPANGQQASSQNEGLTIDLKNFRKPGEKTFTQRSRLFVGNLPPDITEEEMRKLFEKYGKAGEVFIHKDKGFGFIRLETRTLAEIAKVELDNMPLRGKQLRVRFACHSASLTVRNLPQYVSNELLEEAFSVFGQVERAVVIVDDRGRPSGKGIVEFSGKPAARKALDRCSEGSFLLTTFPRPVTVEPMDQLDDEEGLPEKLVIKNQQFHKEREQPPRFAQPGSFEYEYAMRWKALIEMEKQQQDQVDRNIKEAREKLEMEMEAARHEHQVMLMRQDLMRRQEELRRMEELHNQEVQKRKQLELRQEEERRRREEEMRRQQEEMMRRQQEGFKGTFPDAREQEIRMGQMAMGGAMGINNRGAMPPAPVPAGTPAPPGPATMMPDGTLGLTPPTTERFGQAATMEGIGAIGGTPPAFNRAAPGAEFAPNKRRRY

Legend:
[1] = biological target: Capicua (CIC), endogenous (human (endogenous in HEK293A and NHA)) (UniProt Q96RK0); assay: affinity purification with mass spectrometry; nuclear fractions of HEK293A (HEK-CIC^WT) cells; IP with anti-endogenous CIC antibody (three replicates) or anti-Myc for stably expressed N-Myc-CIC-S (one experiment); LC-MS/MS; candidates identified in at least two of four replicates
[2] = biological target: Capicua (CIC), endogenous (human (endogenous in HEK293A and NHA)) (UniProt Q96RK0); assay: affinity purification with mass spectrometry; nuclear fractions of NHA (NHA-CIC^WT) cells; CIC IP in triplicate with matched IgG controls; 'trigger peptides' used to enhance MS sensitivity for a subset of proteins

Row | binding [1] | binding [2] | Binder
1 | binds | binds | B1
2 | binds | binds | B2
3 | binds | binds | B3

Results are given in words; binding and its absence hold for the method and conditions named. Binding seen in cells or lysates may run through a third protein. These calls come from enrichment with a bait or labelling near it, and not all partners need be listed.
